Taken from: PubChem BioAssay AID1224830 (NIAID, 2016)

Assay: 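Regulators of TLR4 signalling towards TNF-alpha in macrophage-like cells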 (primary screen)
System: human THP-1 monocytic leukaemia cells, TNF dual-luciferase reporter clone, PMA-differentiated to macrophage-like cells
Reagent: siRNA pool against human genes, 50 nM
Duration: LPS for 4 h, given about 3 days after siRNA transfection
Conditions: bacterial LPS (TLR4 ligand), 10 ng/ml
Read-out: 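TNF firefly reporter luminescence divided by renilla, normalised to the plate median, then turned into a robust z-score for each replicate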
Scale: TNF reporter robust z-score: higher = stronger TNF reporter response to LPS
Hit rule: 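a well is active when its z-score exceeds 2.8 or falls below -1.5; control wells carry no call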
In all, the deposit lists about 18,000 reagents; shown is a part drawn at random. About 2,900 of them (16%) were called active. 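Calls are made per well; low scores hint the gene aids the LPS response, high scores that it dampens it.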 A number with no mark means an inactive call. Repeated entries: four replicate wells of each siRNA pool.

target	TNF reporter robust z-score
RBM47 (RNA binding motif protein 47)	-0.95
RBM47 (RNA binding motif protein 47)	0.66
RBM47 (RNA binding motif protein 47)	0.24
RBM47 (RNA binding motif protein 47)	-0.11
ADGRD1 (adhesion G protein-coupled receptor D1)	-0.84
ADGRD1 (adhesion G protein-coupled receptor D1)	-0.93
ADGRD1 (adhesion G protein-coupled receptor D1)	-0.66
ADGRD1 (adhesion G protein-coupled receptor D1)	0.16
PTP4A1 (protein tyrosine phosphatase 4A1)	0.13
PTP4A1 (protein tyrosine phosphatase 4A1)	0
PTP4A1 (protein tyrosine phosphatase 4A1)	-0.03
PTP4A1 (protein tyrosine phosphatase 4A1)	-0.62
ZNF766 (zinc finger protein 766)	-0.23
ZNF766 (zinc finger protein 766)	-0.13
ZNF766 (zinc finger protein 766)	-0.11
ZNF766 (zinc finger protein 766)	-0.14
MAN2B2 (mannosidase alpha class 2B member 2)	0.2
MAN2B2 (mannosidase alpha class 2B member 2)	0.7
MAN2B2 (mannosidase alpha class 2B member 2)	0.98
MAN2B2 (mannosidase alpha class 2B member 2)	0.32
RTN3 (reticulon 3)	0.44
RTN3 (reticulon 3)	2.65
RTN3 (reticulon 3)	2.93 (active)
RTN3 (reticulon 3)	-0.98
FRAT1 (FRAT regulator of Wnt signaling pathway 1)	-1.64 (active)
FRAT1 (FRAT regulator of Wnt signaling pathway 1)	0.06
FRAT1 (FRAT regulator of Wnt signaling pathway 1)	-0.72
FRAT1 (FRAT regulator of Wnt signaling pathway 1)	0.91
KRTAP26-1 (keratin associated protein 26-1)	-0.16
KRTAP26-1 (keratin associated protein 26-1)	1.5
KRTAP26-1 (keratin associated protein 26-1)	2.12
KRTAP26-1 (keratin associated protein 26-1)	-0.37
CNTD1 (cyclin N-terminal domain containing 1)	0.01
CNTD1 (cyclin N-terminal domain containing 1)	0.32
CNTD1 (cyclin N-terminal domain containing 1)	-1.07
CNTD1 (cyclin N-terminal domain containing 1)	0.07
PCDHGA6 (protocadherin gamma subfamily A, 6)	0.24
PCDHGA6 (protocadherin gamma subfamily A, 6)	0.58
PCDHGA6 (protocadherin gamma subfamily A, 6)	-0.04
PCDHGA6 (protocadherin gamma subfamily A, 6)	-0.13
RBM24 (RNA binding motif protein 24)	-0.67
RBM24 (RNA binding motif protein 24)	-0.24
RBM24 (RNA binding motif protein 24)	-0.95
RBM24 (RNA binding motif protein 24)	-0.75
DPY30 (dpy-30 histone methyltransferase complex regulatory subunit)	-1.32
DPY30 (dpy-30 histone methyltransferase complex regulatory subunit)	-0.14
DPY30 (dpy-30 histone methyltransferase complex regulatory subunit)	-0.28
DPY30 (dpy-30 histone methyltransferase complex regulatory subunit)	-0.45

Already shown: an excerpt of the list.
target	TNF reporter robust z-score
FRAT1 (FRAT regulator of Wnt signaling pathway 1)	-0.72
FRAT1 (FRAT regulator of Wnt signaling pathway 1)	0.91
KRTAP26-1 (keratin associated protein 26-1)	-0.16
KRTAP26-1 (keratin associated protein 26-1)	1.5
KRTAP26-1 (keratin associated protein 26-1)	2.12
KRTAP26-1 (keratin associated protein 26-1)	-0.37
CNTD1 (cyclin N-terminal domain containing 1)	0.01
CNTD1 (cyclin N-terminal domain containing 1)	0.32
